Among the data in publication doi:10.1101/073015 are binding values, retold here.

No constants are given. Whether binding was seen depends on the method and setting. Sequences can lack the tags named with a protein.

This assay addresses T1, MAP kinase 12 (MPK12), Col-0 version, split-ubiquitin two-hybrid fusion (Arabidopsis thaliana) (UniProt Q8GYQ5).
T1 sequence: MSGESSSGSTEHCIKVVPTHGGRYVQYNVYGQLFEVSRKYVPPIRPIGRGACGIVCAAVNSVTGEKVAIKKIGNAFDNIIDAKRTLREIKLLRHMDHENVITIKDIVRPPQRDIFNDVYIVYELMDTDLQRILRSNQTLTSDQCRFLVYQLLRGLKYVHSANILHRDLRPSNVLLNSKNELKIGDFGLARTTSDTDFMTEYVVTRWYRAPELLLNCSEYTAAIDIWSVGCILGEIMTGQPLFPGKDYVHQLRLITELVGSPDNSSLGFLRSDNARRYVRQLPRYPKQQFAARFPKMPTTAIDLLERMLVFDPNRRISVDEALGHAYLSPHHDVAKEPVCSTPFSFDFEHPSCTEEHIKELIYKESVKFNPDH
The experiment in a line: two-hybrid.

Regarding “HAB1, split-ubiquitin two-hybrid prey (Arabidopsis thaliana) (enzyme)”, the binding entry is listed as “no binding”.
